The supplement of paper PMC8166895
Structures can show the parent of a compound that is named as a salt. This is one part of the list. Most values lie at the level of the controls, where differences are scatter.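 Melting temperature was read by differential scanning fluorimetry in a single-replicate pilot screen of a library of approved drugs and clinical or known-target compounds. Compounds raising the melting point by at least 2 °C were the top stabilizing hits, and negative shifts mean destabilization.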

These molecules were tested on SARS-CoV-2 main protease (Mpro, nsp5) (assay: thermal shift ΔTm of Mpro relative to plate average Tm; higher = stronger thermal stabilization of Mpro (binding)). Conditions: 10 µM; protein concentration 1 µM.
For `CCCCN1CCC(CNC(=O)c2c3n(c4ccccc24)CCCO3)CC1` [Piboserod], the “thermal shift ΔTm of Mpro” value was 0.313 °C.
`O=C(c1cccc(-c2nc3ccccc3[nH]2)n1)N1CCN(C(=O)c2cccc(-c3nc4ccccc4[nH]3)n2)CC1` was tested, and the “thermal shift ΔTm of Mpro” value was 0.0615 °C.
In the case of `Cn1nnc(-c2ccc(-c3ccc(N4C[C@H](CO)OC4=O)cc3F)cn2)n1` [Torezolid], the “thermal shift ΔTm of Mpro” value is reported as 0.0298 °C.
For `Cc1cccc(Nc2ccncc2S(=O)(=O)NC(=O)NC(C)C)c1` [Torasemide], the “thermal shift ΔTm of Mpro” value was 0.0659 °C.
With `Nc1cccc(-c2nc(N3CCOCC3)c3oc4ncccc4c3n2)c1` [PIK-inhibitors] the “thermal shift ΔTm of Mpro” value was -0.00175 °C.
In the case of `Cc1ccc(Cl)cc1N(CC(=O)Nc1c(F)cccc1F)S(C)(=O)=O`, the “thermal shift ΔTm of Mpro” value is reported as -0.208 °C.
In the case of `O=C(c1ccc(F)cc1)N1CCC[C@H](c2nc(-c3ccc(F)cc3)no2)C1`, the “thermal shift ΔTm of Mpro” value is reported as -0.188 °C.
In the case of `FC(F)(F)Oc1ccc(-c2ccc3nnc(C(F)(F)F)n3c2)cc1`, the “thermal shift ΔTm of Mpro” value is reported as 0.0357 °C.
For `NC(=O)N1c2ccccc2CC(=O)c2ccccc21` [Oxcarbazepine], the “thermal shift ΔTm of Mpro” value was 0.238 °C.
For `NC1=NCC2c3ccccc3Cc3ccccc3N12` (stereo not drawn) [Epinastine HCl], the “thermal shift ΔTm of Mpro” value was -0.133 °C.
For `COc1cc2ncnc(Nc3cccc(I)c3)c2cc1OC`, the “thermal shift ΔTm of Mpro” value was 0.158 °C.
For `Cc1nc2ccc(NC(=O)Nc3ccnc4cccnc34)cc2o1`, the “thermal shift ΔTm of Mpro” value was 0.123 °C.
`Oc1nc(-c2ccc(C(F)(F)F)cc2)nc2c1CSCC2` was tested, and the “thermal shift ΔTm of Mpro” value was 0.0812 °C.
For `CC(C)Cn1cnc2c(N)nc3ccccc3c21` [Imiquimod], the “thermal shift ΔTm of Mpro” value was 0.0667 °C.
`Cn1ncc2c1-c1c(Oc3ccc(OCc4ccc5ccccc5n4)cc3)sc(C(N)=O)c1CC2` was tested, and the “thermal shift ΔTm of Mpro” value was -0.297 °C.
With `c1cc(CN2CCCNCCNCCCNCC2)ccc1CN1CCCNCCNCCCNCC1` [AMD 3100 octahydrochloride] the “thermal shift ΔTm of Mpro” value was -0.0669 °C.
`c1cc(CN2CCCNCCNCCCNCC2)ccc1CN1CCCNCCNCCCNCC1` [Plerixafor] was tested, and the “thermal shift ΔTm of Mpro” value was 0.156 °C.
For `CC(C)NC(=N)NC(=N)Nc1ccc(Cl)cc1` [Proguanil hydrochloride], the “thermal shift ΔTm of Mpro” value was -0.0323 °C.
For `CC(C)n1cnc2c(NCCc3ccc(O)cc3)nc(-c3csc4ccccc34)nc21` [StemRegenin 1 (SR1)], the “thermal shift ΔTm of Mpro” value was 0.6 °C.
With `O=C(NNc1ccccc1)c1ccncc1` the “thermal shift ΔTm of Mpro” value was 0.137 °C.
In the case of `CCNC(=O)c1cc2c(-c3cc(OCCN4CCCC4)c(Cl)cc3Cl)nc(N)nc2s1`, the “thermal shift ΔTm of Mpro” value is reported as 0.29 °C.
`Cc1nc2c(O)cccc2c(=O)[nH]1` was tested, and the “thermal shift ΔTm of Mpro” value was -0.157 °C.
`Cc1cc(F)c(Nc2ncnc3cc(OCc4ccccc4)ccc23)cc1O` was tested, and the “thermal shift ΔTm of Mpro” value was -0.12 °C.
For `CCCC(=O)O[C@]1(C(=O)CO)CC[C@H]2[C@@H]3CCC4=CC(=O)CC[C@]4(C)[C@H]3[C@@H](O)C[C@@]21C` [Hydrocortisone butyrate], the “thermal shift ΔTm of Mpro” value was 0.0832 °C.
In the case of `Cc1cc(C#N)cc(C)c1Oc1nc(Nc2ccc(C#N)cc2)nc(N)c1Br` [Etravirine (TMC125)], the “thermal shift ΔTm of Mpro” value is reported as 0.629 °C.
`Cn1cncc1[C@@](N)(c1ccc(Cl)cc1)c1ccc2c(c1)c(-c1cccc(Cl)c1)cc(=O)n2C` [Tipifarnib] was tested, and the “thermal shift ΔTm of Mpro” value was -0.233 °C.
`Cc1nnc(SCC2=C(C(=O)O)N3C(=O)[C@@H](NC(=O)Cn4cnnn4)[C@H]3SC2)s1` [Cefazolin sodium salt] was tested, and the “thermal shift ΔTm of Mpro” value was 0.317 °C.
With `O=c1[nH]c(=O)n([C@H]2C[C@H](O)[C@@H](CO)O2)cc1C(F)(F)F` [Trifluridine] the “thermal shift ΔTm of Mpro” value was 0.0771 °C.
`CCCCCCCCNC(C)C(O)c1ccc(SC(C)C)cc1` (stereo not drawn) [Suloctidil] was tested, and the “thermal shift ΔTm of Mpro” value was -0.0334 °C.
`O=C(O)c1ccc(/C=C2\SC(=S)N(Cc3cccc(C(F)(F)F)c3)C2=O)cc1` was tested, and the “thermal shift ΔTm of Mpro” value was 0.192 °C.
`S=c1[nH]cnc2nc[nH]c12` [6-Mercaptopurine monohydrate] was tested, and the “thermal shift ΔTm of Mpro” value was 0.0251 °C.
In the case of `S=c1[nH]cnc2nc[nH]c12` [Mercaptopurine (6-MP)], the “thermal shift ΔTm of Mpro” value is reported as 0.257 °C.
For `NCc1ccc(C(=O)O)cc1`, the “thermal shift ΔTm of Mpro” value was 0.287 °C.
For `Cc1cccc(-c2[nH]ncc2-c2ccc3ncccc3n2)n1`, the “thermal shift ΔTm of Mpro” value was -0.0101 °C.
For `CN(Cc1ccc(C(C)(C)C)cc1)Cc1cccc2ccccc12` [Butenafine HCl], the “thermal shift ΔTm of Mpro” value was 0.0278 °C.
For `CN1CC[C@@H](c2c(O)cc(O)c3c(=O)cc(-c4ccccc4Cl)oc23)[C@@H]1CO`, the “thermal shift ΔTm of Mpro” value was 0.0668 °C.
In the case of `O=C(NCCCNc1nc(Nc2cccc(NC(=O)N3CCCC3)c2)ncc1I)c1cccs1`, the “thermal shift ΔTm of Mpro” value is reported as 0.23 °C.
`O=C(O)C[C@H](O)C[C@H](O)/C=C/c1c(C2CC2)nc2ccccc2c1-c1ccc(F)cc1` [Pitavastatin Calcium] was tested, and the “thermal shift ΔTm of Mpro” value was -0.134 °C.
`Cc1ccc(C)c(OCCCC(C)(C)C(=O)O)c1` [Gemfibrozil] was tested, and the “thermal shift ΔTm of Mpro” value was -0.045 °C.
With `CN1CCN(Cc2ccc(NC(=O)Nc3ccc(Oc4cc(NC(=O)C5CC5)ncn4)cc3)cc2C(F)(F)F)CC1` the “thermal shift ΔTm of Mpro” value was 0.225 °C.
`COc1cc2c(cc1OC)[C@@H]1Cc3ccc(OC)c(OC)c3CN1CC2` [Rotundine] was tested, and the “thermal shift ΔTm of Mpro” value was -0.0496 °C.
In the case of `Cc1nn(C)cc1-c1nc2c(N3CCN(Cc4ccc(Cl)cc4)CC3)c(Cl)cnc2[nH]1`, the “thermal shift ΔTm of Mpro” value is reported as -0.081 °C.
With `CN1CCC(CNc2ccc3ncc(-c4cccc(OC(F)(F)F)c4)n3n2)CC1` [SGI-1776 free base] the “thermal shift ΔTm of Mpro” value was -0.245 °C.
In the case of `COc1ccc(CNc2nc(N(CCO)CCO)nc3c2ncn3C(C)C)cc1`, the “thermal shift ΔTm of Mpro” value is reported as 0.117 °C.
For `NCC(=O)CCC(=O)O` [5-Aminolevulinic acid HCl], the “thermal shift ΔTm of Mpro” value was 0.0128 °C.
In the case of `C[C@H](NC(=O)CCc1nc2ccccc2c(=O)[nH]1)c1ccccc1`, the “thermal shift ΔTm of Mpro” value is reported as -0.121 °C.
In the case of `COc1ccc(CN(CCN(C)C)c2ncccn2)cc1` [Thonzylamine], the “thermal shift ΔTm of Mpro” value is reported as 0.2 °C.
`CN(C)CCC=C1c2ccccc2C(C)(C)c2ccccc21` [Melitracen hydrochloride] was tested, and the “thermal shift ΔTm of Mpro” value was -0.1 °C.
In the case of `Cc1ccc(Sc2ccccc2N2CCNCC2)c(C)c1`, the “thermal shift ΔTm of Mpro” value is reported as -0.149 °C.
`Cc1ccc(Sc2ccccc2N2CCNCC2)c(C)c1` [Vortioxetine] was tested, and the “thermal shift ΔTm of Mpro” value was -0.0266 °C.
With `Cc1ccc(S(=O)(=O)N2CCCC2c2ccc(F)cc2)cc1` (stereo not drawn) the “thermal shift ΔTm of Mpro” value was -0.06 °C.
For `O=C(O)c1ccc(-n2nc(-c3ccccc3O)nc2-c2ccccc2O)cc1` [Deferasirox], the “thermal shift ΔTm of Mpro” value was -0.021 °C.
In the case of `O=C1CN(CCN2CC(=O)N(CN3CCOCC3)C(=O)C2)CC(=O)N1CN1CCOCC1` [Bimolane], the “thermal shift ΔTm of Mpro” value is reported as -0.121 °C.
With `N#CCCCSC(=N)N` [Kevetrin hydrochloride] the “thermal shift ΔTm of Mpro” value was 0.207 °C.
`COC(=O)CCc1ccc(OCC(O)CNC(C)C)cc1` (stereo not drawn) [Esmolol hydrochloride] was tested, and the “thermal shift ΔTm of Mpro” value was 0.0562 °C.
In the case of `COC(=O)CCc1ccc(OCC(O)CNC(C)C)cc1` (stereo not drawn) [Esmolol HCl], the “thermal shift ΔTm of Mpro” value is reported as -0.0583 °C.
For `O=C(NCc1cccc(O)c1)Nc1nc(-c2ccncc2)cs1`, the “thermal shift ΔTm of Mpro” value was 0.37 °C.
For `COc1cc(C(=O)NC2CCN(C)CC2)ccc1Nc1ncc2c(n1)N(C1CCCC1)CC(F)(F)C(=O)N2C`, the “thermal shift ΔTm of Mpro” value was -0.0889 °C.
